No constants are given. Whether binding was seen depends on the method and setting. Binding can be weak; no strength is given.
Each substance was assayed against T1, cytoplasmic domains of Drosophila Syndecan (Sdc), yeast two-hybrid bait (Drosophila) (UniProt P49415) (assay: two-hybrid; Matchmaker Two-Hybrid System 3 (Clontech); cytoplasmic Sdc in pGBKT7 as bait in AH109 yeast; library of Drosophila embryonic cDNA fragments in pACT2 as prey; selection on high stringency plates (-Leu -Trp -Ade -His), 30°C, 6-7 days; library screen, hits obtained multiple independent times).
T1 sequence: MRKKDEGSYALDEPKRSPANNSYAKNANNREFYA

| Substance | binding |
| --- | --- |
| CG10005 (Drosophila) | binds |
| Daughters against DPP (DAD) (Drosophila) | binds |
| ELMO / Ced-12 (Drosophila) | binds |
| Glutamate Receptor Interacting Protein (GRIP) (Drosophila) | binds |
| Twin of M4 (Drosophila) | binds |

Source: paper PMC4795781
